# PubChem BioAssay AID2685 (National Center for Advancing Translational Sciences (NCATS), 2010)
# This is one part of the list. These are further read-outs of the screen, such as a control signal, another cell line or another target. No call is given for them. The list favours compounds with an active or inconclusive main result. The note in brackets gives the kind of curve behind each potency; many fits are weak.
# Assay: qHTS Assay for Lipid Storage Modulators in Drosophila S3 Cells;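 on cell number change: cells counted by Cell Tracker Red CMTPX staining in the red channel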
# Settings: BODIPY lipid droplet fluorescence, 18-24 h; for cell number change: measured here: cell count max response, cells fed with added oleic acid
# How it was run: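 Drosophila S3 cells loaded with oleic acid (400 uM, as added) and compounds at several concentrations; lipid droplets imaged by 488-nm laser-scanning cytometry, 500–530 nm intensity and object ratio to cell channel. Percent activity normalized to 20 uM Triacsin C.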
# [1] = measured here: lipid fluorescence (Fed channel) AC50, cells fed with added oleic acid
# [2] = measured here: cell number channel AC50, cells fed with added oleic acid
smiles,measurement,setting,value
CC(=O)c1sc(NCc2ccccc2)nc1C,cell number change,,12.5%
same,AC50,[1],"29.1 µM [rising, single point]"
Cc1ccc(NC(=O)COC(=O)CCc2ccc(S(=O)(=O)N3CCOCC3)cc2)cc1F,cell number change,,-38.8%
NC(=O)C1(N2CCCCC2)CCN(C2CC(=O)N(CCc3ccccc3)C2=O)CC1 (stereo not drawn),cell number change,,1.81%
same,AC50,[2],"0.164 µM [falling, full curve, poor fit]"
same,AC50,[1],"1.03 µM [falling, full curve]"
COc1ccc(CN2CCN(C(=O)C3CCC(CNS(=O)(=O)c4ccccc4)CC3)CC2)c(OC)c1OC (stereo not drawn),cell number change,,20.6%
same,AC50,[1],"18.4 µM [falling, single point]"
COc1ccc2nc(Nc3nc4cc5c(cc4s3)OCO5)sc2c1,AC50,[1],"3.26 µM [rising, single point]"
Cc1noc(C)c1COc1ccc(C(=O)OCC(=O)Nc2cccc(S(=O)(=O)N3CCOCC3)c2)cc1,cell number change,,-31.3%
same,AC50,[2],"0.0058 µM [falling, full curve, poor fit]"
same,AC50,[1],"0.82 µM [falling, full curve, poor fit]"
C/C(=N\NC(=O)c1ccc(CN(C)S(=O)(=O)c2ccc(C)cc2)cc1)c1ccc(OC(F)F)cc1,cell number change,,-37.2%
same,AC50,[2],"16.4 µM [falling, single point]"
same,AC50,[1],"8.2 µM [falling, partial curve]"
CCC(=O)Nc1cc2c(C)cc(=O)oc2cc1C,AC50,[2],"0.651 µM [rising, partial curve]"
same,AC50,[1],"3.66 µM [rising, partial curve]"
COc1cc2[nH]c(=S)nc(NCc3cccs3)c2cc1OC,cell number change,,-31.4%
same,AC50,[2],"8.2 µM [falling, partial curve]"
same,AC50,[1],"29.1 µM [falling, single point]"
CC(=O)Nc1cccc(NS(=O)(=O)c2cccc3nsnc23)c1,AC50,[1],"5.8 µM [falling, single point]"
CCN1CCN(C(=O)c2ccc3c(c2)N(Cc2ccc(C)cc2)CCS3)CC1,cell number change,,9.48%
same,AC50,[1],"29.1 µM [rising, single point]"
CC(=O)c1ccc(C(=O)NC2CCCN(Cc3ccc(Cl)cc3)C2)s1 (stereo not drawn),cell number change,,19.7%
COc1ccc(-c2cc(C(=O)NCc3ccco3)c3ccccc3n2)cc1,cell number change,,-30.1%
same,AC50,[2],"0.259 µM [falling, full curve, poor fit]"
same,AC50,[1],"29.1 µM [falling, single point]"
Cc1cc(Oc2ccc(Br)cc2)nc(SCC(=O)c2ccccc2)n1,cell number change,,18%
same,AC50,[1],"16.4 µM [rising, partial curve, poor fit]"
Cc1ccc(S(=O)(=O)Cc2cc(F)c([N+](=O)[O-])cc2[N+](=O)[O-])cc1,AC50,[1],"0.82 µM [falling, full curve]"
CCN(Cc1ccccc1)C(=O)C(=O)c1cn(CC(=O)N2CCCC2)c2ccccc12,cell number change,,-10.4%
O=C(/C=C/Nc1ccc(Nc2ccccc2)cc1)c1cccs1,cell number change,,-55.7%
same,AC50,[2],"14.6 µM [falling, partial curve, poor fit]"
same,AC50,[1],"25.9 µM [falling, partial curve]"
CNc1ccccc1C(=O)OC(C)C(=O)Nc1ccc(Cl)cn1 (stereo not drawn),cell number change,,6.93%
same,AC50,[1],"6.51 µM [rising, single point]"
CC(NC(=S)NCc1ccc(F)cc1)C12CC3CC(CC(C3)C1)C2 (stereo not drawn),cell number change,,-29.8%
same,AC50,[1],"1.84 µM [falling, partial curve]"
Cc1ccc(NC(=O)CSc2nc(=O)n(CCCN3CCOCC3)c3c2CCCC3)c(C)c1,cell number change,,60.6%
same,AC50,[2],"14.6 µM [rising, single point]"
CCn1c(SCc2nc3sc(C(=O)O)c(C)c3c(=O)[nH]2)nc2ccccc21,AC50,[1],"0.082 µM [falling, full curve]"
CC(C)[C@H]1C(=O)Nc2ccccc2N1C(=O)N[C@@H](Cc1ccccc1)C(=O)N[C@H](C(=O)O)c1ccccc1,cell number change,,14.2%
same,AC50,[1],"2.31 µM [rising, full curve, poor fit]"
COc1ccccc1NS(=O)(=O)c1ccc(Cl)c(NC(=S)NC(=O)C2CCCC2)c1,cell number change,,-4.98%
same,AC50,[1],"29.1 µM [rising, single point]"
Cc1ccc(-c2nnc(SCC(=O)N/N=C/c3ccc(C)s3)n2-c2ccc(C)cc2)cc1,cell number change,,10.2%
same,AC50,[1],"4.61 µM [rising, single point]"
COc1ccc(-n2ccn(CC(=O)Nc3ccc(OC)cc3OC)c(=O)c2=O)cc1,cell number change,,31.8%
same,AC50,[2],"2.31 µM [rising, partial curve, poor fit]"
same,AC50,[1],"14.6 µM [rising, partial curve]"
COc1ccc(OC)c(NC(=O)C2CCC(CNc3c(N4CCC(C)CC4)c(=O)c3=O)CC2)c1 (stereo not drawn),cell number change,,-35.9%
same,AC50,[2],"9.2 µM [falling, single point]"
Cc1cc(C)c2sc(N(CCCN(C)C)C(=O)c3ccc(S(=O)(=O)N(C)C4CCCCC4)cc3)nc2c1,cell number change,,-82.5%
same,AC50,[2],"16.4 µM [falling, partial curve]"
same,AC50,[1],"2.06 µM [falling, partial curve, poor fit]"
O=C(NN=C1CCCCCC1)NC1CCCCC1,cell number change,,36.9%
same,AC50,[2],"32.6 µM [rising, single point]"
Cn1c(C(=O)N(Cc2ccccc2)Cc2cccs2)cc2sccc21,cell number change,,3.24%
S=c1[nH]c2ccc(Cc3ccc4[nH]c(=S)[nH]c4c3)cc2[nH]1,cell number change,,-29.1%
same,AC50,[1],"0.58 µM [rising, single point]"
CC1Cc2cc(S(=O)(=O)NCCC(=O)NCc3ccc(F)cc3)ccc2N1C(=O)C1CC1 (stereo not drawn),cell number change,,-20.8%
COc1ccc(CN(C(=O)/C=C/C(=O)c2ccc(OC)cc2O)C(C(=O)NC2CCCCC2)c2ccncc2)cc1 (stereo not drawn),cell number change,,44.1%
same,AC50,[2],"29.1 µM [rising, single point]"
CC(=O)Nc1ccc(OC(=O)c2c(-c3ccccc3Cl)noc2C)cc1,cell number change,,40.2%
same,AC50,[2],"5.8 µM [rising, partial curve]"
CCCC(=O)Nc1ccc2c(c1)nc(CN1CCN(C(=O)OCC)CC1)n2CC,cell number change,,-12.8%
CCN1CCN(c2ccc(S(=O)(=O)N3CCOCC3)cc2NC(=O)COc2ccc(F)cc2Cl)CC1,cell number change,,-9.96%
same,AC50,[1],"16.4 µM [falling, single point]"
O=C(Oc1cccnc1)c1ccc([N+](=O)[O-])cc1,cell number change,,-11.4%
same,AC50,[1],"0.231 µM [falling, partial curve, poor fit]"
COc1ccc(C(C)(C)C)cc1NC(=O)COC(=O)c1ncc(Cl)c(Cl)c1Cl,cell number change,,-38%
same,AC50,[2],"29.1 µM [falling, single point]"
same,AC50,[1],"18.4 µM [falling, single point]"
COc1ccc(NC(=O)N2CCCC2C(=O)NCC2CCCCC2)cc1 (stereo not drawn),cell number change,,-9.68%
CN1CCN(CCOc2ccc(Cc3ccccc3)cc2)CC1,cell number change,,-19.3%
same,AC50,[1],"7.31 µM [rising, partial curve, poor fit]"
CC(CC(=O)NCc1ccc(Cl)cc1)c1ccccc1 (stereo not drawn),cell number change,,4.4%
same,AC50,[1],"29.1 µM [falling, single point]"
CCCOc1ccc2oc(=O)c3c(c2c1)CCCN3C(=O)CN1CCN(c2ncccn2)CC1,cell number change,,4.19%
O=C(c1cccs1)N1CCc2c([nH]c3ccccc23)C1c1ccc(Cl)cc1 (stereo not drawn),cell number change,,34.1%
same,AC50,[2],"29.1 µM [rising, single point]"
same,AC50,[1],"20.6 µM [rising, single point]"
Cc1cccc(N2CCN(C3=NC(=O)C(=C4CCCCC4)S3)CC2)c1,cell number change,,-3.12%
Cc1cc(C)c(NC(=O)COC(=O)C2CCC(=O)N2)c(C)c1 (stereo not drawn),AC50,[1],"0.0058 µM [falling, full curve, poor fit]"
O=C(c1ccccc1F)N1CCN(c2ccccc2F)CC1,cell number change,,2.92%
NC(=O)c1ccc(NC(=O)COC(=O)c2cccc(Oc3ccccc3)c2)cc1,cell number change,,-34.1%
same,AC50,[2],"1.16 µM [falling, full curve]"
Clc1ccc(COc2ccccc2CNCc2cccnc2)cc1,cell number change,,59.7%
same,AC50,[2],"2.91 µM [rising, full curve, poor fit]"
same,AC50,[1],"0.82 µM [rising, partial curve]"
CCCCn1c(C(C)NC(=O)COC)nc2ccccc21 (stereo not drawn),cell number change,,0.0283%
same,AC50,[1],"2.31 µM [rising, partial curve]"
COc1ccccc1CNC(=O)c1nnc(Cc2ccc(Cl)cc2)o1,cell number change,,17%
same,AC50,[2],"0.164 µM [rising, full curve, poor fit]"
same,AC50,[1],"29.1 µM [rising, single point]"
O=C1CC(N2CCc3ccccc32)C(=O)N1c1ccccc1 (stereo not drawn),cell number change,,-30.2%
same,AC50,[2],"29.1 µM [falling, single point]"
same,AC50,[1],"29.1 µM [falling, single point]"
Cc1ccc(S(=O)(=O)NNC2=NCCCCC2)cc1,cell number change,,-1.1%
same,AC50,[2],"6.51 µM [falling, single point]"
same,AC50,[1],"5.8 µM [falling, full curve]"
O=C(NCc1cccnc1)c1cccc(-c2cc3ccccc3oc2=O)c1,cell number change,,-32%
same,AC50,[2],"20.6 µM [falling, single point]"
CCn1c(SCc2nc(CC(=O)Nc3ccccc3OC)no2)nnc1-c1cccs1,cell number change,,2.63%
O=C(O)CCCCCN1C(=O)CCC1=O,cell number change,,0.136%
O=S(=O)(Nc1cccc(-c2nc3cccnc3s2)c1)c1ccc2c(c1)CCCC2,cell number change,,0.204%
same,AC50,[1],"0.82 µM [rising, single point]"
COc1ccc2c(c1)[nH]c1c(N3CCN(Cc4ccc5c(c4)OCO5)CC3)ncnc12,cell number change,,-31.5%
same,AC50,[2],"1.84 µM [falling, partial curve, poor fit]"
same,AC50,[1],"0.116 µM [falling, full curve]"
C[n+]1cccc(O)c1SCc1ccccc1,cell number change,,16.4%
same,AC50,[1],"29.1 µM [falling, single point]"
CCN1CCN(C(=O)C2CCN(S(=O)(=O)c3ccc(SC)cc3)CC2)CC1,cell number change,,15.3%

# 4 successive records already listed, for reference:
smiles,measurement,setting,value
NC(=O)C1(N2CCCCC2)CCN(C2CC(=O)N(CCc3ccccc3)C2=O)CC1 (stereo not drawn),cell number change,,1.81%
same,AC50,[2],"0.164 µM [falling, full curve, poor fit]"
same,AC50,[1],"1.03 µM [falling, full curve]"
COc1ccc(CN2CCN(C(=O)C3CCC(CNS(=O)(=O)c4ccccc4)CC3)CC2)c(OC)c1OC (stereo not drawn),cell number change,,20.6%
